PubChem BioAssay AID540256 (National Center for Advancing Translational Sciences (NCATS), 2011)
In all, about 300,000 compounds went through this assay and about 3,700 (1.2%) were called active. Inconclusive means that the source gave no clear call. Such entries were picked first, then a sample of the others. The call rests on the fitted dose curve; tested in HEK293 cells. Where the call is inconclusive, the potency comes from a doubtful curve fit.

Experiment: qHTS for Inhibitors of binding or entry into cells for Lassa Virus; further: nearly all actives have a fitted effect of over 50% in size
Details: Lassa virus pseudotype entry inhibition, cell reporter; series mostly up to 37.9 µM
Potency means the concentration at half of the fitted maximal effect.

| SMILES | Potency |
| --- | --- |
| CCSc1nc2c(c(=O)[nH]c(=O)n2C)n1Cc1ccc(Cl)cc1 | inactive |
| COc1ccc(OC)c(C2SCCN2S(=O)(=O)c2cccc(C(F)(F)F)c2)c1 (centres undefined) | inactive |
| COCCN1C(=NCC(C)C)NC(c2ccccc2)C(C(=O)OC)=C1C (centres undefined) | inconclusive: 1.19 µM [inhibitor, partial curve, poor fit] |
| COc1ccc(/C=C/C(=O)CC(O)(c2ccccc2)C(F)(F)F)cc1 (centres undefined) | inconclusive: 23.1 µM [inhibitor, single point] |
| O=C(Oc1ccnc2cc(Cl)ccc12)N1CCOCC1 | inactive |
| CCCc1cc(C(=O)N2CCCC(Cc3ccccc3C)(C(=O)OCC)C2)no1 (centres undefined) | inconclusive: 10 µM [inhibitor, partial curve, poor fit] |
| O=C(Nc1ccccc1C(=O)Nc1nncs1)c1ccccc1 | inconclusive: 35.5 µM [inhibitor, partial curve, poor fit] |
| CCc1ccc(CN(Cc2cccnc2)C(=O)/C=C/c2ccc(OC)cc2)cc1 | inactive |
| OCCN(Cc1ccccc1)C(=S)Nc1ccc(Cl)cc1Cl | inconclusive: 31.6 µM [inhibitor, single point] |
| COc1ccc([N+](=O)[O-])cc1NC(=O)C1CCCCC1C(=O)O (centres undefined) | inconclusive: 29.1 µM [activator, single point] |
| Cc1cccc(C(=O)NCC(=O)N(C)CC(=O)Nc2ccc(N3CCOCC3)cc2)c1 | inconclusive: 3.16 µM [activator, single point] |
| Cc1ccc(-n2nnnc2SCc2nnc(-c3ccccc3Br)o2)c(C)c1 | inconclusive: 8.2 µM [inhibitor, partial curve, poor fit] |
| COc1ccc(NC(=O)CC2C(=O)N(c3ccccc3)C(=O)N2CCc2cccs2)cc1 (centres undefined) | inconclusive: 0.0052 µM [inhibitor, full curve, poor fit] |
| O=[N+]([O-])c1ccc(O)c(C2=NNC(c3ccccc3F)C2)c1 (centres undefined) | inconclusive: 35.5 µM [inhibitor, single point] |
| CCN(CC)c1ccc(C(=O)OCC(=O)N(C)Cc2ccccc2)cc1 | inconclusive: 35.5 µM [inhibitor, partial curve, poor fit] |
| COc1ccc(C(=O)n2nc(N)c3cc4ccc(C)cc4nc32)cc1OC | inactive |
| CCOC(=O)Cn1c(=N)n(Cc2ccc(C(C)(C)C)cc2)c2ccccc21 | inactive |
| Cc1ccc(NC(=S)N(CCCN2CCCC2)Cc2cccn2Cc2ccc(Cl)cc2)cc1C | inconclusive: 5.62 µM [inhibitor, full curve, poor fit] |
| O=C1CCCN1CCCNC(=S)Nc1ccc(F)c(Cl)c1 | inconclusive: 35.5 µM [inhibitor, single point] |

No new results follow: 2 of the compounds above.

| SMILES | Potency |
| --- | --- |
| COc1ccc([N+](=O)[O-])cc1NC(=O)C1CCCCC1C(=O)O (centres undefined) | inconclusive: 29.1 µM [activator, single point] |
| Cc1cccc(C(=O)NCC(=O)N(C)CC(=O)Nc2ccc(N3CCOCC3)cc2)c1 | inconclusive: 3.16 µM [activator, single point] |
